“And” between values parts separate entries of the source, which are not always exact repeats. Equal values may be shown once. The inconclusive results got no clear call from the source; some entries with a clear call stand among them for comparison. Potencies of inconclusive entries are doubtful fits and often do not repeat. The source made the active and inactive calls. The call rests on the fitted dose curve; in most records, active means well fitted curve in the direction sought with a large enough effect; inconclusive means small, poorly fitted or top-dose-only effect, or another doubt; inactive means no such curve, though single readings can be large; an effect the other way counts as inactive or inconclusive.
Experiment: Identifying Small Molecule Inhibitors of Pancreatic Cancer Stem Cells (SN12C, Adherent) (AID 1259358);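 further: cell survival measured after 48 h of compound exposure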
Settings: viability/growth inhibition; series mostly up to 46.1 µM
Method in brief: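 Spheroids grown 14 days in stem cell media on hydrogel-coated nonadherent plates; 2D lines seeded directly. Compounds added after 4 h attachment, 48 h at 37C, 5% CO2; CellTiter-Glo luminescence normalized to DMSO (no inhibition) and no-cell wells (full inhibition).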
Potency means the concentration at half of the fitted maximal effect.

SMILES | Potency
O=C(NC1CCNCC1)c1[nH]ncc1NC(=O)c1c(Cl)cccc1Cl | inconclusive: 418 nM [cytotoxic, full curve] and inconclusive: 1.48 µM [cytotoxic, full curve]
Cc1ccc(C(=O)Nc2ccc(CN3CCN(C)CC3)c(C(F)(F)F)c2)cc1C#Cc1cnc2cccnn12 | active: 16.6 µM
Cc1ccc(Nc2nccc(N(C)c3ccc4c(C)n(C)nc4c3)n2)cc1S(N)(=O)=O | active: 18.7 µM
Cc1c(-c2ccc(O)cc2)n(Cc2ccc(OCCN3CCCCCC3)cc2)c2ccc(O)cc12 | inactive
Cc1csc(-c2nnc(Nc3ccc(Oc4ncccc4-c4ccnc(N)n4)cc3)c3ccccc23)c1 | inconclusive: 37.2 µM [cytotoxic, partial curve, poor fit]
CC(=O)c1c(C)c2cnc(Nc3ccc(N4CCNCC4)cn3)nc2n(C2CCCC2)c1=O | inconclusive: 18.7 µM [cytotoxic, partial curve, poor fit]
Cc1ccc(NC(=O)c2cccc(C(C)(C)C#N)c2)cc1Nc1ccc2ncn(C)c(=O)c2c1 | active: 7.43 µM
O=c1[nH]c(-c2ccc(C(F)(F)F)cc2)nc2c1CSCC2 | inactive
CC1(O)CC(c2nc(-c3ccc4ccc(-c5ccccc5)nc4c3)c3c(N)nccn23)C1 (stereo not given) | inconclusive: 18.7 µM [cytotoxic, partial curve, poor fit]
Cc1ccc(-c2ncn(-c3ccc(Nc4nccc(-c5cccc(N6CCOCC6)c5)n4)cc3)n2)cn1 | active: 0.059 µM
C1=CCOCc2cc(ccc2OCCN2CCCC2)Nc2nccc(n2)-c2cccc(c2)OCC1 | active: 5.26 µM
COc1ccc2c(c1)CC[C@@H](CN(C)CC(=O)O)[C@H]2c1ccccc1 | inactive
NC(=O)C1CCCc2c1[nH]c1ccc(Cl)cc21 (stereo not given) | inactive
COc1cc(OC2CCN(C)CC2)ccc1Nc1ncc2c(n1)n(C1CCCC1)c(=O)n2C | active: 16.6 µM
CNC(=O)c1cc(Oc2ccc(NC(=O)Nc3ccc(Cl)c(C(F)(F)F)c3)cc2)ccn1 | active: 20.9 µM

Experiment: Identifying Small Molecule Inhibitors of Pancreatic Cancer Stem Cells (Panc1, Spheroid) (AID 1259359);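 further: compound exposure lasted 48 h before reading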
Settings: Panc1 spheroid cancer stem cell viability; viability, % of control: at 46.1 µM (top of the series) unless noted
Method in brief: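 Spheroids grown 14 days in stem cell media on nonadherent hydrogel before screening; cells attached 4 h, then compound exposure 48 h at 37C, 5% CO2. CellTiter-Glo luminescence normalized to DMSO (no inhibition) and no-cell wells (full inhibition).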

SMILES | Potency | viability, % of control
O=C(NC1CCNCC1)c1[nH]ncc1NC(=O)c1c(Cl)cccc1Cl | active: 1.32 µM and active: 1.05 µM | –
Nc1cccc2c1CN(C1CCC(=O)NC1=O)C2=O (stereo not given) | inconclusive: 8.6 nM [cytotoxic, full curve, poor fit] | –
Cc1ccc(C(=O)Nc2ccc(CN3CCN(C)CC3)c(C(F)(F)F)c2)cc1C#Cc1cnc2cccnn12 | inconclusive: 26400 nM [cytotoxic, single point] | –
Cc1ccc(Nc2nccc(N(C)c3ccc4c(C)n(C)nc4c3)n2)cc1S(N)(=O)=O | inconclusive: 23.5 nM [cytotoxic, full curve, poor fit] | –
COc1ccc2nc(S(=O)Cc3ncc(C)c(OC)c3C)[nH]c2c1 (stereo not given) | inconclusive: 743 nM [cytotoxic, full curve, poor fit] | –
Cc1c(-c2ccc(O)cc2)n(Cc2ccc(OCCN3CCCCCC3)cc2)c2ccc(O)cc12 | – | inconclusive: 54%
Cc1csc(-c2nnc(Nc3ccc(Oc4ncccc4-c4ccnc(N)n4)cc3)c3ccccc23)c1 | inconclusive: 16.6 nM [cytotoxic, full curve, poor fit] | –
CCn1c(-c2nonc2N)nc2c(C#CC(C)(C)O)ncc(OC[C@H]3CCCNC3)c21 | inactive | –
CC(=O)c1c(C)c2cnc(Nc3ccc(N4CCNCC4)cn3)nc2n(C2CCCC2)c1=O | inconclusive: 33200 nM [cytotoxic, single point] | –
Cc1ccc(NC(=O)c2cccc(C(C)(C)C#N)c2)cc1Nc1ccc2ncn(C)c(=O)c2c1 | inconclusive: 6620 nM [cytotoxic, partial curve, poor fit] | –
O=c1[nH]c(-c2ccc(C(F)(F)F)cc2)nc2c1CSCC2 | – | inconclusive: 112%
O=C(O)CCc1ccc(NCc2cccc(Oc3ccccc3)c2)cc1 | inconclusive: 18700 nM [cytotoxic, partial curve, poor fit] | –
CC1(O)CC(c2nc(-c3ccc4ccc(-c5ccccc5)nc4c3)c3c(N)nccn23)C1 (stereo not given) | active: 148 nM | –
Cc1ccc(-c2ncn(-c3ccc(Nc4nccc(-c5cccc(N6CCOCC6)c5)n4)cc3)n2)cn1 | inconclusive: 166 nM [cytotoxic, full curve, poor fit] | –
C1=CCOCc2cc(ccc2OCCN2CCCC2)Nc2nccc(n2)-c2cccc(c2)OCC1 | inconclusive: 296 nM [cytotoxic, full curve, poor fit] | –
Cc1cn(-c2cc(NC(=O)c3ccc(C)c(Nc4nccc(-c5cccnc5)n4)c3)cc(C(F)(F)F)c2)cn1 | inconclusive: 37200 nM [cytotoxic, single point] | –
COc1ccc2c(c1)CC[C@@H](CN(C)CC(=O)O)[C@H]2c1ccccc1 | inconclusive: 37.2 nM [cytotoxic, full curve, poor fit] | –
NC(=O)C1CCCc2c1[nH]c1ccc(Cl)cc21 (stereo not given) | – | inconclusive: 64.8%
COc1cc(OC2CCN(C)CC2)ccc1Nc1ncc2c(n1)n(C1CCCC1)c(=O)n2C | inconclusive: 20900 nM [cytotoxic, partial curve, poor fit] | –
CNC(=O)c1cc(Oc2ccc(NC(=O)Nc3ccc(Cl)c(C(F)(F)F)c3)cc2)ccn1 | inconclusive: 13200 nM [cytotoxic, partial curve, poor fit] | –

In a second layout: 2 of the compounds above
COc1ccc2nc(S(=O)Cc3ncc(C)c(OC)c3C)[nH]c2c1 (stereo not given)
  Potency: inconclusive: 743 nM [cytotoxic, full curve, poor fit]
Cc1c(-c2ccc(O)cc2)n(Cc2ccc(OCCN3CCCCCC3)cc2)c2ccc(O)cc12
  viability, % of control: inconclusive: 54%

— PubChem BioAssay (NCATS)
